Source: publication doi:10.1101/2025.07.28.667104
These are yes or no findings as the source states them, for the method shown. Binding seen in cells or lysates may run through a third protein. These calls come from enrichment with a bait or labelling near it, and not all partners need be listed.

By UniProt entry, the sequences of proteins in these tests, tags left out.
UniProt P29590, whole entry: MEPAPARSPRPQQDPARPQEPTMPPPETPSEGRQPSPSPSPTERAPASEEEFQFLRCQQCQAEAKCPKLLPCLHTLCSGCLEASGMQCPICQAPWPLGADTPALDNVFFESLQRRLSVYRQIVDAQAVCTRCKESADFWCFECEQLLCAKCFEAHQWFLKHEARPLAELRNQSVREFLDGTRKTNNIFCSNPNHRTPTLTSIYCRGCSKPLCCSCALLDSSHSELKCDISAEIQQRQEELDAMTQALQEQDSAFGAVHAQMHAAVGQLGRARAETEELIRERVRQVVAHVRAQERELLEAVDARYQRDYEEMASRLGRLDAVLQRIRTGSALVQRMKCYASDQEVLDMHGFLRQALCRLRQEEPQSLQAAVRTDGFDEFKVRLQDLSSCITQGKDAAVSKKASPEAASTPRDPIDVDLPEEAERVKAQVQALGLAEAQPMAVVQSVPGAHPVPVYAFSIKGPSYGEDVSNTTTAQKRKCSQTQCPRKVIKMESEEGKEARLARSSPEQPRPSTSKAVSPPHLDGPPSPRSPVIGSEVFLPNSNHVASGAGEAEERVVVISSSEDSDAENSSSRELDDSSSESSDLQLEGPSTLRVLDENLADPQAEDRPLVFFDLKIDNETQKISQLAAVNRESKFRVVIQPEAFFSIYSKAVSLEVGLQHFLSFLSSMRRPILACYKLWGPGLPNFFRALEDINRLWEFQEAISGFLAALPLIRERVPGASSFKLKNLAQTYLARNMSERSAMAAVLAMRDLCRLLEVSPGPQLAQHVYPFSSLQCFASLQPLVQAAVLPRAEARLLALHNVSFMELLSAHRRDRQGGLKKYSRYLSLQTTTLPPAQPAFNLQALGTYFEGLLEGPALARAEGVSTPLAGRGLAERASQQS

Molecular target: PML I-TurboID NTD (UniProt P29590)
Test: proximity labelling

| Substance | binding |
| --- | --- |
| DAXX (from UniProt Q9UER7 1-740) | binds |
| ATRX (from UniProt P46100 1-2492) | binds |
